Laboratory results reported in patent publication US20080220140A1, “USE OF PROPENYLPHENYL GLYCOSIDES FOR ENHANCING SWEET SENSORY IMPRESSIONS” (SYMRISE GmbH & Co. KG, priority 2007, published 2008).

How the values were obtained:
[1] = Current Biology 2005, 15, 1256-1265 and own sensory test; cited from earlier work
[2] = Sensory profile (taste description) of the substance in water or sucrose solution; type: in vivo
Excerpt: Tasting of an equivalent amount of glucose (200 ppm, corresponding to 0.02 wt. %) was not carried out, because corresponding absolute amounts or amounts added to the sucrose already present have no sensory relevance.

Row | Compound | Taste [1] | further results
1 | C=CCc1ccccc1O[C@@H]1O[C@H](CO)[C@@H](O)[C@H](O)[C@H]1O [2-allylphenyl-β-D-glucopyranoside] | very bitter | 
2 | O=Cc1ccc(O[C@@H]2O[C@H](CO)[C@@H](O)[C@H](O)[C@H]2O)cc1 [4-carbonylphenyl-β-D-glucopyranoside] | very bitter | 
3 | CCc1ccc(O[C@@H]2O[C@H](CO)[C@@H](O)[C@H](O)[C@H]2O)cc1 [4-ethylphenyl-β-D-gluco-pyranoside] | very bitter | 
4 | Cc1ccc(O[C@@H]2O[C@H](CO)[C@@H](O)[C@H](O)[C@H]2O)cc1 [4-methylphenyl-β-D-glucopyranoside] | very bitter | 
5 | C=CCc1ccc(O)cc1 [chavicol, 4-Allylphenol] |  | Sensory profile ([2]; 2 ppm in 5 wt. % aqueous sugar solution (sucrose)): cresol note, rubber, unpleasant; Intrinsic flavour impression ([2]; even at 2 ppm): very strong and disruptive
6 | C=CCc1ccc(O[C@@H]2O[C@H](CO)[C@@H](O)[C@H](O)[C@H]2O)cc1 [compound 1, 1-O-[4-(propen-2-enyl)phenyl]-D-glucopyranoside] |  | Sensory profile ([2]; 100 ppm in 5 wt. % aqueous sugar solution (sucrose)): slightly dusty-dry, otherwise neutral; Sensory profile ([2]; 100 ppm in aqueous solution): virtually neutral, slightly dusty-dry
7 | OCc1ccccc1O[C@@H]1O[C@H](CO)[C@@H](O)[C@H](O)[C@H]1O [salicin, 2-(hydroxymethyl)phenyl-β-D-glucopyranoside] | very bitter | 
